The values that follow come from US20050256195A1, “Composition for preventing hypertension” (priority 2002, published 2005).

The conditions of the data set: 20 adults.

Turning to `CC(=O)O` [acetic acid], under “10 g or lower acetic acid in 1,000 g beverage”, the “participants who indicated ease of drinking” value is not below 18 participants. Also, where the note is “30 g acetic acid in 1,000 g beverage”, the “participants who recognized a problem of taste” value stood at 10 participants. Also, the “participants who pointed out a problem of taste” value (50 g acetic acid in 1,000 g beverage) is recorded as 19 participants.
